Experimental data reported in publication PMC5430542.
These are yes or no findings as the source states them, for the method shown. Binding seen in cells or lysates may run through a third protein. Binding can be weak; no strength is given.

Amino acid sequences for entries named in this document (tags omitted). A change or cut given only in a name is not applied to a line headed by its entry.
UniProt Q9BZL6: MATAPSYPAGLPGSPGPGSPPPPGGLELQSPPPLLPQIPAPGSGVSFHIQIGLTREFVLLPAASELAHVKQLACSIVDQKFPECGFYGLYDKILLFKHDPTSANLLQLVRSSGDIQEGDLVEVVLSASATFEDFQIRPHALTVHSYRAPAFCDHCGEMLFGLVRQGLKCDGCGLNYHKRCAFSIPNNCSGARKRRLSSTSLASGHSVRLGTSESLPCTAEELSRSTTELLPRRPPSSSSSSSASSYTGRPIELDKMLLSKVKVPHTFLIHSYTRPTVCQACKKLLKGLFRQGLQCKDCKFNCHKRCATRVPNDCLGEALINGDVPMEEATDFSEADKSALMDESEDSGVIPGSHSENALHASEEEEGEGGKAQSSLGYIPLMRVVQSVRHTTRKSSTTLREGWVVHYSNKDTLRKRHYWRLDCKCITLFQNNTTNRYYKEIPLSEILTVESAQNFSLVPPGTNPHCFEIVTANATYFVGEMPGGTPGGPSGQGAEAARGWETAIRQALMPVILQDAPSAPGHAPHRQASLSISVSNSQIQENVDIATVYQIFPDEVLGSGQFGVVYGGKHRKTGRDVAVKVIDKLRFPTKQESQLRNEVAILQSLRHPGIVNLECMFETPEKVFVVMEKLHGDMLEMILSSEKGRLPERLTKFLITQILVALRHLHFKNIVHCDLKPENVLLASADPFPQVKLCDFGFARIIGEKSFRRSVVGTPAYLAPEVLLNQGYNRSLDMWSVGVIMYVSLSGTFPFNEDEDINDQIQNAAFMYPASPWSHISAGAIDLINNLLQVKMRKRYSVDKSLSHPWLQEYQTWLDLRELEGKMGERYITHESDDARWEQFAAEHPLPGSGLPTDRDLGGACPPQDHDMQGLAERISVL
UniProt Q05655: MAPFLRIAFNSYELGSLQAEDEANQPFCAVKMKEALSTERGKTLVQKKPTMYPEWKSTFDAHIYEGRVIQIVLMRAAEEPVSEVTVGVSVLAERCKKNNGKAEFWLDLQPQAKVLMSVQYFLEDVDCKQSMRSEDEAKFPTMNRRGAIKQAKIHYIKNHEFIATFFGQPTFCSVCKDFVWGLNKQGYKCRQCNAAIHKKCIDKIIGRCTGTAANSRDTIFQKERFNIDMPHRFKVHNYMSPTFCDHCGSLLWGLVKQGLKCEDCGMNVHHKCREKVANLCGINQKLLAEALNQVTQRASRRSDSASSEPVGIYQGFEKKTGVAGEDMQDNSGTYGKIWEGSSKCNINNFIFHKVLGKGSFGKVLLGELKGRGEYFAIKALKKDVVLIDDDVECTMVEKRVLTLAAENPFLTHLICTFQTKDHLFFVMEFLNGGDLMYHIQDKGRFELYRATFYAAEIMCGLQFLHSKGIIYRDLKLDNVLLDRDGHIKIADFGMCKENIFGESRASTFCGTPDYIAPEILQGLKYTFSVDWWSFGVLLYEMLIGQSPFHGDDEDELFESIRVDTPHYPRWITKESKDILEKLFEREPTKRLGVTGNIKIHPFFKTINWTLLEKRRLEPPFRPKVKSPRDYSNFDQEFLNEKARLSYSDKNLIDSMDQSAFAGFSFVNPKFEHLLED

Key:
[1] = target: GFP-PKD2 ΔC1a (human) (UniProt Q9BZL6); experiment: co-IP; GFP-PKD2 (WT or deletion mutants) precipitated with GFP trap (GFP nanobody beads) from lysates of transfected HEK293 cells stimulated with H2O2 (10 mM, 10 min); blot for PKCδ
[2] = target: GFP-PKD2 ΔC1b (human) (UniProt Q9BZL6); experiment: as above

binding [1]: binds | binding [2]: binds
Substance: PKCδ (from UniProt Q05655 1-676) (enzyme)
